Experimental data: paper PMC7653941
These are yes or no findings as the source states them, for the method shown. Some binding calls cover weakened binding; strength is not graded here.

Amino acid sequences for entries named in this document (tags omitted). Residues count along the entry.
UniProt P08195, residues 102-630: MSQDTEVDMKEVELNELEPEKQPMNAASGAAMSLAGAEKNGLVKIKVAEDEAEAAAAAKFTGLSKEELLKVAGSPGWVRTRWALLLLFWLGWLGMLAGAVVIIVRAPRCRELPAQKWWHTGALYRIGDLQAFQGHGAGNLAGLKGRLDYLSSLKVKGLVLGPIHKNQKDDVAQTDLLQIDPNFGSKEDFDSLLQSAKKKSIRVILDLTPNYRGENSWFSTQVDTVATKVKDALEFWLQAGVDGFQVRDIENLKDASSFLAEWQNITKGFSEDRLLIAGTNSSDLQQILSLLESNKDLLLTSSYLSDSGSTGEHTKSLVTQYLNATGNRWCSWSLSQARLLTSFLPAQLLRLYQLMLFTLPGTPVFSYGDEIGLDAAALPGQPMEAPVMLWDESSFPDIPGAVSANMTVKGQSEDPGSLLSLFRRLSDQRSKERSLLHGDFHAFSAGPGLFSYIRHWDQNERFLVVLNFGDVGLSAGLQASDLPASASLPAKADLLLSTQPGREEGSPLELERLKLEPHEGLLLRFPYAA

Target: 4F2 cell-surface antigen heavy chain (4F2hc), human (human) (UniProt P08195)
Experiment: cryo-EM structure; recombinant LAT2-4F2hc complex after two-step affinity purification, incubated with Leu or Trp; inward-open conformation; 2.9 Å (Leu) and 3.4 Å (Trp); both purified

binding: binds
B1: L-type amino acid transporter 2 (LAT2), human (protein, UniProt Q9UHI5 2-535)
chain: EEGARHRNNTEKKHPGGGESDASPEAGSGGGGVALKKEIGLVSACGIIVGNIIGSGIFVSPKGVLENAGSVGLALIVWIVTGFITVVGALCYAELGVTIPKSGGDYSYVKDIFGGLAGFLRLWIAVLVIYPTNQAVIALTFSNYVLQPLFPTCFPPESGLRLLAAICLLLLTWVNCSSVRWATRVQDIFTAGKLLALALIIIMGIVQICKGEYFWLEPKNAFENFQEPDIGLVALAFLQGSFAYGGWNFLNYVTEELVDPYKNLPRAIFISIPLVTFVYVFANVAYVTAMSPQELLASNAVAVTFGEKLLGVMAWIMPISVALSTFGGVNGSLFTSSRLFFAGAREGHLPSVLAMIHVKRCTPIPALLFTCISTLLMLVTSDMYTLINYVGFINYLFYGVTVAGQIVLRWKKPDIPRPIKINLLFPIIYLLFWAFLLVFSLWSEPVVCGIGLAIMLTGVPVYFLGVYWQHKPKCFSDFIELLTLVSQKMCVVVYPEVERGSGTEEANEDMEEQQQPMYQPTPTKDKDVAGQPQP
